This is one part of the list.
What was measured:
Assay in all cases: NMR binding call after quantification (hit when 2 of 3 NMR criteria are met) (binary (1 = binding, 0 = not binding)); higher = binding
Details in all cases: RNA concentration 10 µM; fragment concentration 200 µM; 293 K
SARS-CoV-2 5'-UTR RNA = test system: SARS-CoV-2 5'-UTR RNA
SARS-CoV-2 5_SL1 RNA = test system: SARS-CoV-2 5_SL1 RNA
SARS-CoV-2 5_SL1234 RNA = test system: SARS-CoV-2 5_SL1234 RNA
SARS-CoV-2 5_SL2+3 RNA = test system: SARS-CoV-2 5_SL2+3 RNA
SARS-CoV-2 5_SL4 RNA = test system: SARS-CoV-2 5_SL4 RNA
SARS-CoV-2 5_SL5 RNA = test system: SARS-CoV-2 5_SL5 RNA
SARS-CoV-2 5_SL5a RNA = test system: SARS-CoV-2 5_SL5a RNA
SARS-CoV-2 5_SL5b+c RNA = test system: SARS-CoV-2 5_SL5b+c RNA
SARS-CoV-2 5_SL5stem RNA = test system: SARS-CoV-2 5_SL5stem RNA
SARS-CoV-2 5_SL6 RNA = test system: SARS-CoV-2 5_SL6 RNA

Measured: NMR binding call

Cl.O=C(O)CN1CCC(c2ccccc2)CC1
0: all assays above

COCCNC1CCN(C(C)=O)CC1
0: all assays above

CN(Cc1cccc(F)c1)S(N)(=O)=O
0: all assays above

CC(C)Oc1ccc(-c2csc(N)n2)cc1
0: all assays above

c1ccc(CN2CCC(n3cccc3)CC2)cc1
0: all assays above

CC(=O)Nc1cc2c(cc1C)OCO2
0: all assays above

Cc1csc(CNC(=O)C2CCC2)n1
0: all assays above

Fc1ccc(Cn2cnc3ccccc32)cc1
0: all assays above

CN(C(=O)C1CCNC1)c1ccccc1.Cl (stereo not given)
0: all assays above

COc1cccc(CN2CCC(C(N)=O)CC2)c1
0: all assays above

NC(=S)Nc1ccccc1OC(F)(F)F
0: all assays above

Quoted at random: 2 entries already listed
COc1cccc(CN2CCC(C(N)=O)CC2)c1
0: all assays above

Cc1csc(CNC(=O)C2CCC2)n1
0: all assays above

The list continues.

CCC(=O)Nc1ccc(C)cc1O
0: all assays above

CCC1CCC(NCC2CCCO2)CC1 (stereo not given)
0: all assays above

Cc1noc(C(N)C(C)C)n1 (stereo not given)
0: all assays above

Fc1ccccc1CNc1cn[nH]c1
0: all assays above

Cc1nnc(N2CCCCC2)s1
0: all assays above

Nc1ccc(S(=O)(=O)Nc2ccccc2)cc1
0: all assays above

CC(C)(O)CNC1CCOCC1
0: all assays above

NC(=O)C(O)C1CCOCC1 (stereo not given)
0: all assays above

COc1ccc(C)cc1NC(=O)CN.Cl
0: all assays above

CC(=O)c1ccc(N2CCC(C(N)=O)CC2)cc1
0: all assays above

O=C1CN(Cc2ccccc2)CC(=O)N1
0: all assays above

CC1CCCN(C(=O)CO)C1 (stereo not given)
0: all assays above

CN1CCN(CCN)CC1(C)C
0: all assays above

Reference: the supplement of paper PMC8426693
